These are yes or no findings as the source states them, for the method shown. In cells and extracts the contact can be indirect. Some entries that bind do so weakly or less than the wild type.
What was measured:
Experiment in all cases: co-IP; total protein extract of SIM2 A6 mES cells (26 h without tetracycline); lysis buffer 50mM Hepes pH 8, 200mM NaCl, 0.1mM EDTA, 0.5% NP-40, 10% glycerol; immunoprecipitation overnight at 4°C with antibodies against the endogenous factor on protein G Dynabeads; washes in 50mM TrisHCl pH 8, 250mM NaCl, 1% Triton X-100; western blot with anti-Flag-HRP; in duplicate
[1] = target: SOX2 (endogenous) (mouse (endogenous in mES cells)) (UniProt P48432)
[2] = target: T1, NANOG (endogenous) (mouse (endogenous in mES cells)) (UniProt Q80Z64)
T1 sequence: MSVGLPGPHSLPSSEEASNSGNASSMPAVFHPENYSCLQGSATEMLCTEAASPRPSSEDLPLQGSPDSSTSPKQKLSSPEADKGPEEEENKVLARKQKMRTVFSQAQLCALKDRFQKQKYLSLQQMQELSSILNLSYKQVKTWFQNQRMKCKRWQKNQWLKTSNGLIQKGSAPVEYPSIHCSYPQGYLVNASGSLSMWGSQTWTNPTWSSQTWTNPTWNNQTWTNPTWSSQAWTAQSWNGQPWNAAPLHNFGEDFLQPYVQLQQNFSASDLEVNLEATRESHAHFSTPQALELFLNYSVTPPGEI

By UniProt entry, the sequences of proteins in these tests, tags left out.
UniProt P48432: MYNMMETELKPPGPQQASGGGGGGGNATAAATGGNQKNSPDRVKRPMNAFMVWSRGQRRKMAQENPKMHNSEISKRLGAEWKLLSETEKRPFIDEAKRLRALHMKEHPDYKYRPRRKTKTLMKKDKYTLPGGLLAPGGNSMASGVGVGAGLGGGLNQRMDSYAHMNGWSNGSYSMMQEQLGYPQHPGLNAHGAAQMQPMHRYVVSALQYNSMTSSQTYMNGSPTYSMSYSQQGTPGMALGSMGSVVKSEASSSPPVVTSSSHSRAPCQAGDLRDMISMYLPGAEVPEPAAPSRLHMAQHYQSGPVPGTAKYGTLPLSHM
UniProt P20263: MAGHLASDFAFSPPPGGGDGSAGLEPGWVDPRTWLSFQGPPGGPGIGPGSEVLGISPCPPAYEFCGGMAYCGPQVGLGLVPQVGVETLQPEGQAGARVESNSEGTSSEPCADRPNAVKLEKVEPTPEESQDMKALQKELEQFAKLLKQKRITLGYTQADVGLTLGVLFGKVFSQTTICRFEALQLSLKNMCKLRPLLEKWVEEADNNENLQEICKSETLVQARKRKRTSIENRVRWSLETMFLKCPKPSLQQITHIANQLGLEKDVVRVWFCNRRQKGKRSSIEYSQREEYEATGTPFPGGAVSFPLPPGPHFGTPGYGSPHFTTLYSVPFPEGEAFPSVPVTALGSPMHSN
UniProt Q60793: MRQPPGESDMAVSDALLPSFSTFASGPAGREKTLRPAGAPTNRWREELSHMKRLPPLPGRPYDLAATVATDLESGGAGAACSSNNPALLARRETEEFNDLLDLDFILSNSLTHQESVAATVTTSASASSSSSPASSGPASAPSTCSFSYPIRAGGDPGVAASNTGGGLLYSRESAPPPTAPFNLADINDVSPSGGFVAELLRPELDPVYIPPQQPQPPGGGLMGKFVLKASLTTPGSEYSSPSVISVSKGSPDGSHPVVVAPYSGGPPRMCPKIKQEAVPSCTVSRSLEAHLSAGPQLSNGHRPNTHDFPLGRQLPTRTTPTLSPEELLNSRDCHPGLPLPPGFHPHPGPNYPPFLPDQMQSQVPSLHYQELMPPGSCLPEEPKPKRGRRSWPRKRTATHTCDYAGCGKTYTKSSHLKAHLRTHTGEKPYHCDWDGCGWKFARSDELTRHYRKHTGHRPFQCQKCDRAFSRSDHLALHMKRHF
UniProt Q61079: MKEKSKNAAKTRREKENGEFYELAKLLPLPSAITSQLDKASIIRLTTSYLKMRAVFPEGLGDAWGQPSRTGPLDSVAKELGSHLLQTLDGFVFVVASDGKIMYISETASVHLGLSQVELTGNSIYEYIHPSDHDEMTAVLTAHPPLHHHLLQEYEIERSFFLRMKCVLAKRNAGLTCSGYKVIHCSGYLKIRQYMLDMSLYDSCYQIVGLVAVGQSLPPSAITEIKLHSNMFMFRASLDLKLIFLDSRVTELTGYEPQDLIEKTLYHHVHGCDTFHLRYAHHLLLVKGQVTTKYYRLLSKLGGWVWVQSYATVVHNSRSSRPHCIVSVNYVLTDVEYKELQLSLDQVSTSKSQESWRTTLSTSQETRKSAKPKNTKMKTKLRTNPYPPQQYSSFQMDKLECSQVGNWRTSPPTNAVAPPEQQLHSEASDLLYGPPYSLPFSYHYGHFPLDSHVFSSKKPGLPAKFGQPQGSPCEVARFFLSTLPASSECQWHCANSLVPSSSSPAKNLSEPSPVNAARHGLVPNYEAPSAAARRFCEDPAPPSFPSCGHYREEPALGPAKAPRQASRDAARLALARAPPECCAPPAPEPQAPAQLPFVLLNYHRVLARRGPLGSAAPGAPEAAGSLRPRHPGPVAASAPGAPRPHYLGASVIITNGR

[3] = target: OCT4 (Pou5f1) (endogenous) (mouse (endogenous in mES cells)) (UniProt P20263)
[4] = target: KLF4 (endogenous) (mouse (endogenous in mES cells)) (UniProt Q60793)

Measured: binding

SIM2-FLAG (Flag-tagged mouse Single-minded 2) (from UniProt Q61079 1-657)
binds: [1] | [2] | [3] | [4]

From article PMC4425456
